# Laboratory results reported in publication PMC7862700.
# Sequences of proteins named here, by UniProt entry; tags and fusion partners are left off. A change or cut given only in a name is not applied to a line headed by its entry.
# UniProt O43186: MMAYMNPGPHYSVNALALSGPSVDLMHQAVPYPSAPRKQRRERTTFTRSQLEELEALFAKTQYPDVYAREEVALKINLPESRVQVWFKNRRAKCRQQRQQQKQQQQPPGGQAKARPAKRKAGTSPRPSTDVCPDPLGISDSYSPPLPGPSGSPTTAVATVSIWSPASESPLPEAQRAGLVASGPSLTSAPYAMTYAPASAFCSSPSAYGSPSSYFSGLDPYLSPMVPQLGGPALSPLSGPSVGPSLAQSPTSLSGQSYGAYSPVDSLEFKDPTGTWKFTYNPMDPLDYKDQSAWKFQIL
# The list shows a part of the results, in another mix than the full data. At the low end of the ranking the order means little.
# Tests used:
# Test in all cases: DAPPL (digital affinity profiling via proximity ligation, sequencing)
# Conditions in all cases: 10 mM Tris-HCl pH 7.5, 50 mM NaCl, 1 mM DTT, 4% glycerol, room temperature, 30 min; GST-TFs on glutathione beads, 16-mer random dsDNA library, 0.1% …; high values mean tight binding; double strand, one strand shown; scale: fold enrichment (6-mer frequency, TF over GST control)
# [1] = target: T1, FEV (UniProt Q99581)
# T1 sequence: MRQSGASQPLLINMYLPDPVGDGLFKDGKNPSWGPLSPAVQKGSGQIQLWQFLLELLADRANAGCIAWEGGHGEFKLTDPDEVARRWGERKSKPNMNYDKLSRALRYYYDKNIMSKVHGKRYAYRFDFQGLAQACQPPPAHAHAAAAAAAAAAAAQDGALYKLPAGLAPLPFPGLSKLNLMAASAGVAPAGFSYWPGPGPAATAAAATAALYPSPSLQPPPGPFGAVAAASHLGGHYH
# [2] = target: CRX (UniProt O43186)
# [3] = target: T2, ELF5 (UniProt Q9UKW6-2)
# T2 sequence: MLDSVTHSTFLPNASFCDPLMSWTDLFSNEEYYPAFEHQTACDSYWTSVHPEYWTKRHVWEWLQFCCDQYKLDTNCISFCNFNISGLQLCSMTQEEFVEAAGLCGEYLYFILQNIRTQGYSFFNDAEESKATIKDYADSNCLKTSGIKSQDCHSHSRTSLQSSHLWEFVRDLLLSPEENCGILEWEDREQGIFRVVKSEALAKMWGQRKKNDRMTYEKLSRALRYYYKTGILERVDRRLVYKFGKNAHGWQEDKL
sequence,measurement,setting,value
CCTTAT,binding signal,[1],1.4
same,binding signal,[2],1.77
GTTTCA,binding signal,[1],1.31
same,binding signal,[2],0.926
CACGGA,binding signal,[1],0.96
same,binding signal,[2],0.694
ACCGCT,binding signal,[3],1.05
ATTAAG,binding signal,[3],1.02
TTCTCT,binding signal,[1],1.22
same,binding signal,[2],1.49
GTCCGC,binding signal,[1],1.04
same,binding signal,[2],0.654
TAGTGC,binding signal,[3],0.956
AGTTTT,binding signal,[1],0.929
same,binding signal,[2],0.907
TGTTGC,binding signal,[3],1.3
ATAGAT,binding signal,[1],1.15
same,binding signal,[2],1.49
TAGCCT,binding signal,[3],1.17
ACCGCC,binding signal,[3],1.23
GGTAAT,binding signal,[3],1.16
GCCACT,binding signal,[1],1.31
same,binding signal,[2],0.876
GGATAC,binding signal,[1],0.958
same,binding signal,[2],0.677
TCGACG,binding signal,[1],0.98
same,binding signal,[2],0.913
TCTGGC,binding signal,[1],1.16
same,binding signal,[2],1.31
TCATAT,binding signal,[3],1.19
AGTAAT,binding signal,[1],1.05
same,binding signal,[2],1.61
TTACGC,binding signal,[3],0.96
GATTAA,binding signal,[3],0.99
GCCGAT,binding signal,[3],0.996
CCCGCT,binding signal,[3],1.39
AGCACT,binding signal,[3],1.52
TTCACG,binding signal,[3],1.38
GTCTCC,binding signal,[3],1.4
TAACCG,binding signal,[3],1.05
TTGTAT,binding signal,[3],1.35
ATAGCC,binding signal,[3],0.965
GTAATA,binding signal,[3],1.2
GGCTAA,binding signal,[3],0.939
GTTATT,binding signal,[3],1.21
CCCGTA,binding signal,[3],1.21
ATCACA,binding signal,[3],0.995
AATATC,binding signal,[3],1.82
AAGTTC,binding signal,[3],1.57
AAATCT,binding signal,[3],1.27
CCTATA,binding signal,[3],1.39
GCTGCT,binding signal,[3],1.23
GTTTTA,binding signal,[3],1.09
TATAAA,binding signal,[3],1.24
CCTCCG,binding signal,[3],1.35
TCTGGA,binding signal,[3],0.994
CCTCGG,binding signal,[3],1.2
CCATTA,binding signal,[3],1.08
TCCTCG,binding signal,[3],1.93
TTTCAT,binding signal,[3],1.23
TGTTAC,binding signal,[3],1.43
AATGTA,binding signal,[3],1.21
AGTTCT,binding signal,[3],1.15
TTTCTA,binding signal,[3],1.31
GTTTTT,binding signal,[3],1.36
TCAAAG,binding signal,[3],1.04
ATAATC,binding signal,[3],1.13
TTGTTT,binding signal,[3],1.37
TAGAAC,binding signal,[3],0.926
CCTGAA,binding signal,[3],1.5

# Some of the entries so far, bar-delimited:
sequence | measurement | setting | value
AATGTA | binding signal | [3] | 1.21
AGTTCT | binding signal | [3] | 1.15
